Measurements from publication doi:10.1101/2024.09.27.615457 (bioRxiv, 2024).
Results are given in words; binding and its absence hold for the method and conditions named. In cells and extracts the contact can be indirect. A yes stands for co-enrichment or nearness to the bait. Other partners may have been found. Sequences can lack the tags named with a protein.

T1: HA-tagged bHLH107 (35S::bHLH107-HA in Col-0) (Arabidopsis) (UniProt Q9LET0)
T1 sequence: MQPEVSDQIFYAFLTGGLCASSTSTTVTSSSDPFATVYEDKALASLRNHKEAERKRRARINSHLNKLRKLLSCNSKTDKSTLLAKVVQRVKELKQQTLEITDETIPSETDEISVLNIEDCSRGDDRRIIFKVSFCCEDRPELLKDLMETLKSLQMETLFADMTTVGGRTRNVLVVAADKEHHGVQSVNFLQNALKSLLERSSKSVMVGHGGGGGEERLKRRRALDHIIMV

T2: HA-tagged bHLH107 (35S::bHLH107-HA in Col-0) (Arabidopsis), Q9LET0
T2 chain: T1 sequence

B1: GRF1 (14-3-3 protein), endogenous (protein, UniProt P42643 1-267)
chain: MATPGASSARDEFVYMAKLAEQAERYEEMVEFMEKVAKAVDKDELTVEERNLLSVAYKNVIGARRASWRIISSIEQKEESRGNDDHVSLIRDYRSKIETELSDICDGILKLLDTILVPAAASGDSKVFYLKMKGDYHRYLAEFKSGQERKDAAEHTLTAYKAAQDIANSELAPTHPIRLGLALNFSVFYYEILNSPDRACNLAKQAFDEAIAELDTLGEESYKDSTLIMQLLRDNLTLWTSDMQDDVADDIKEAAPAAAKPADEQQS
B2: GRF2 (14-3-3 protein), endogenous (protein, UniProt Q01525 1-259)
chain: MASGREEFVYMAKLAEQAERYEEMVEFMEKVSAAVDGDELTVEERNLLSVAYKNVIGARRASWRIISSIEQKEESRGNDDHVTAIREYRSKIETELSGICDGILKLLDSRLIPAAASGDSKVFYLKMKGDYHRYLAEFKTGQERKDAAEHTLAAYKSAQDIANAELAPTHPIRLGLALNFSVFYYEILNSPDRACNLAKQAFDEAIAELDTLGEESYKDSTLIMQLLRDNLTLWTSDMQDDAADEIKEAAAPKPTEEQQ
B3: GRF5 (14-3-3 protein), endogenous, P42645 1-268 (protein)
chain: MSSDSSREENVYLAKLAEQAERYEEMVEFMEKVAKTVETEELTVEERNLLSVAYKNVIGARRASWRIISSIEQKEDSRGNSDHVSIIKDYRGKIETELSKICDGILNLLEAHLIPAASLAESKVFYLKMKGDYHRYLAEFKTGAERKEAAESTLVAYKSAQDIALADLAPTHPIRLGLALNFSVFYYEILNSSDRACSLAKQAFDEAISELDTLGEESYKDSTLIMQLLRDNLTLWTSDLNDEAGDDIKEAPKEVQKVDEQAQPPPSQ

Tests used:
[1] = biological target: T1, HA-tagged bHLH107 (35S::bHLH107-HA in Col-0) (Arabidopsis); assay: affinity purification with mass spectrometry
[2] = biological target: T2, HA-tagged bHLH107 (35S::bHLH107-HA in …); assay: affinity purification with mass spectrometry; settings: remark: other sources report otherwise

| Binder | binding [1] | binding [2] |
| --- | --- | --- |
| B1 | binds |  |
| B2 | binds |  |
| B3 |  | binds |
